Test results reported in US20240343704A1, “HALO-SUBSTITUTED AMINO PYRIDINE COMPOUNDS AS INHIBITORS OF THE HAEMATOPOIETIC PROGENITOR KINASE 1 (HPK1)” (priority 2021, published 2024).
The structures given here were assigned with low confidence; some may be wrong.

By UniProt entry, the sequences of proteins in these tests, tags left out. Residues count along the entry.
UniProt P06239, whole entry: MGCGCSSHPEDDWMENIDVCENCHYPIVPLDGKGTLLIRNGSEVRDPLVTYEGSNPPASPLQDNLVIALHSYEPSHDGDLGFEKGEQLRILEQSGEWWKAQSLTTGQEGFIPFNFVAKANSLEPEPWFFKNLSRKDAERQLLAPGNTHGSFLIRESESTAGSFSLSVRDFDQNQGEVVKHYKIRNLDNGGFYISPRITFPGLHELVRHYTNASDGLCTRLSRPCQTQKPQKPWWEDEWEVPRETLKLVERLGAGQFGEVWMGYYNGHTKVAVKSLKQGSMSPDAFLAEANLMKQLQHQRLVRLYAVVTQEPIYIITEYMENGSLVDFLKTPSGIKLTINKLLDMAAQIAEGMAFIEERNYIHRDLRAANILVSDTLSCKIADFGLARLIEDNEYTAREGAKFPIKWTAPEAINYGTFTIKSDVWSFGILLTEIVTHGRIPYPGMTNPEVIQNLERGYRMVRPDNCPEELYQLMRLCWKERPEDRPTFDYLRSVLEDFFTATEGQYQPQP
UniProt Q92918, 1-346 limits assumed: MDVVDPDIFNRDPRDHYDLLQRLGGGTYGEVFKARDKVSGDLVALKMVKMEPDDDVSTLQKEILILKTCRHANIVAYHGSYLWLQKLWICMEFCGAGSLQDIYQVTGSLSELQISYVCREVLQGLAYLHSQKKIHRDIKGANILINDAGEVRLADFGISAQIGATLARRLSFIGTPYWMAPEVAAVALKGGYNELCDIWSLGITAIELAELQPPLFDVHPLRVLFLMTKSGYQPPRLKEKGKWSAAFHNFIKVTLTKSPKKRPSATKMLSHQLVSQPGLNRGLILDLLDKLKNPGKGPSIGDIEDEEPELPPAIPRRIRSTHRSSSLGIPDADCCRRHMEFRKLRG

Tests used:
[1] = target: Lck (h) (Homo sapiens, UniProt P06239); test: Lck Human  Kinase Enzymatic Radiometric Assay; type: biochemical; details: read-out: Lck IC50 nM Range*
Method: Lck (h) is incubated with 50 mM Tris pH 7.5, 0.1 mM EGTA, 0.1 mM Na3VO4, 250 uM KVEKIGEGTYGVVYK (Cdc2 peptide), 10 mM MgAcetate and [gamma-33P]-ATP (specific activity and concentration as required). The reaction is initiated by the addition of the Mg/ATP mix. After incubation for 40 minutes at RT, the reaction is stopped by the addition of phosphoric acid to a concentration of 0.5%. 10 uL of the reaction is then spotted onto a P30 filtermat and washed four times for 4 minutes in 0.425% phosphoric acid and once in methanol prior to drying and scintillation counting. For more details on the kinase assay procedures see: Gao, Y. et. al.; Biochem J., 451 (2): 313-328, 2013.

[2] = target: Recombinant (1-346) HPK1 (h) (Homo sapiens, UniProt Q92918); test: HPK1 Human STE Kinase Enzymatic Radiometric Assay; details: read-out: HPK1 IC50 nM Range*

Nc1nc(F)c(-c2ccc(N3CCN(CCC4CC4)CC3)cc2)cc1-c1cc(F)c2c(=O)[nH]ccc2c1
IC50 [1]: > 1000 nM | IC50 [2]: 0.1 to 10 nM

Nc1nc(F)c(-c2ccc(N3CCN(CCC4CC4)CC3)cc2)cc1-c1cc2cc[nH]c(=O)c2cc1F
IC50 [1]: > 1000 nM | IC50 [2]: 0.1 to 10 nM

Nc1nc(F)c(-c2ccc(N3CCN(CC4CC4)CC3)c(F)c2)cc1-c1cc(F)c2c(c1)CCNC2=O
IC50 [1]: > 1000 nM | IC50 [2]: 0.1 to 10 nM

C[C@@H](C1CC1)N1CCN(c2ccc(-c3cc(-c4cc(F)c5c(c4)CCNC5=O)c(N)nc3F)cc2)CC1
IC50 [1]: 101 to 1000 nM | IC50 [2]: 0.1 to 10 nM
